One experiment relates to endothelial cells. The experiment is described as follows: Endothelial cell migration. The class given is cell-based.
Another experiment relates to B16F10 melanoma. Briefly: Spontaneous B16F10 metastasis after primary tumor resection. It is filed as in vivo, mouse. The conditions noted are these: 21 days of treatment post B16F10 resection, 10 mg/kg/day.

Entries after “also recorded” stand apart in the source; their conditions may differ.

Take `O=C(NC12CC3CC(CC(C3)C1)C2)N[C@H]1CC[C@H](Oc2ccc(C(=O)O)cc2)CC1` [t-AUCB, trans-4-[4-(3-adamantan-1-yl-ureido)-cyclohexyloxy]-benzonic acid]: the VEGF-mediated endothelial migration entry in the experiment with endothelial cells (VEGF-mediated) is reported as “stimulate VEGF-mediated endothelial migration”. The basal endothelial migration result in the experiment on endothelial cells (basal, without VEGF) is reported as “no significant effects”. Moreover, the “spontaneous B16F10 axillary lymph node metastasis” value is reported as “dramatically stimulated; also recorded: increase spontaneous B16F10 axillary lymph node metastasis” in the experiment with B16F10 melanoma and “spontaneous axillary lymph node metastasis” with B16F10 melanoma (listed as tAUCB).

The values are drawn from patent publication US20120315283A1, “METHODS OF PROMOTING TISSUE GROWTH AND TISSUE REGENERATION” (DANA-FARBER CANCER INSTITUTE, INC., priority 2010, published 2012).
